Results of single-concentration screens

Amino acid sequences for entries named in this document (tags omitted).
UniProt P9WPC5, whole entry: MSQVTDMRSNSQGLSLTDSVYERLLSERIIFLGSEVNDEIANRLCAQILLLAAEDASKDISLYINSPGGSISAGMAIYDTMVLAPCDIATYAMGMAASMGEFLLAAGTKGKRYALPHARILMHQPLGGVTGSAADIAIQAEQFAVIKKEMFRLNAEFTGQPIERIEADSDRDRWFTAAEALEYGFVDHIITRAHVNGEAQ
UniProt P9WPC3, whole entry partner: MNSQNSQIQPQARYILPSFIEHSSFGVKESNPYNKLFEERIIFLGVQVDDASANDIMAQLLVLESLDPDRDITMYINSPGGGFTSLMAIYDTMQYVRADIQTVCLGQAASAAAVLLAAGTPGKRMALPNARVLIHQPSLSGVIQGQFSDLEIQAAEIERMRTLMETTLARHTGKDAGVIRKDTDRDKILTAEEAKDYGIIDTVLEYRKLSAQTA
UniProt I6X8D2, whole entry: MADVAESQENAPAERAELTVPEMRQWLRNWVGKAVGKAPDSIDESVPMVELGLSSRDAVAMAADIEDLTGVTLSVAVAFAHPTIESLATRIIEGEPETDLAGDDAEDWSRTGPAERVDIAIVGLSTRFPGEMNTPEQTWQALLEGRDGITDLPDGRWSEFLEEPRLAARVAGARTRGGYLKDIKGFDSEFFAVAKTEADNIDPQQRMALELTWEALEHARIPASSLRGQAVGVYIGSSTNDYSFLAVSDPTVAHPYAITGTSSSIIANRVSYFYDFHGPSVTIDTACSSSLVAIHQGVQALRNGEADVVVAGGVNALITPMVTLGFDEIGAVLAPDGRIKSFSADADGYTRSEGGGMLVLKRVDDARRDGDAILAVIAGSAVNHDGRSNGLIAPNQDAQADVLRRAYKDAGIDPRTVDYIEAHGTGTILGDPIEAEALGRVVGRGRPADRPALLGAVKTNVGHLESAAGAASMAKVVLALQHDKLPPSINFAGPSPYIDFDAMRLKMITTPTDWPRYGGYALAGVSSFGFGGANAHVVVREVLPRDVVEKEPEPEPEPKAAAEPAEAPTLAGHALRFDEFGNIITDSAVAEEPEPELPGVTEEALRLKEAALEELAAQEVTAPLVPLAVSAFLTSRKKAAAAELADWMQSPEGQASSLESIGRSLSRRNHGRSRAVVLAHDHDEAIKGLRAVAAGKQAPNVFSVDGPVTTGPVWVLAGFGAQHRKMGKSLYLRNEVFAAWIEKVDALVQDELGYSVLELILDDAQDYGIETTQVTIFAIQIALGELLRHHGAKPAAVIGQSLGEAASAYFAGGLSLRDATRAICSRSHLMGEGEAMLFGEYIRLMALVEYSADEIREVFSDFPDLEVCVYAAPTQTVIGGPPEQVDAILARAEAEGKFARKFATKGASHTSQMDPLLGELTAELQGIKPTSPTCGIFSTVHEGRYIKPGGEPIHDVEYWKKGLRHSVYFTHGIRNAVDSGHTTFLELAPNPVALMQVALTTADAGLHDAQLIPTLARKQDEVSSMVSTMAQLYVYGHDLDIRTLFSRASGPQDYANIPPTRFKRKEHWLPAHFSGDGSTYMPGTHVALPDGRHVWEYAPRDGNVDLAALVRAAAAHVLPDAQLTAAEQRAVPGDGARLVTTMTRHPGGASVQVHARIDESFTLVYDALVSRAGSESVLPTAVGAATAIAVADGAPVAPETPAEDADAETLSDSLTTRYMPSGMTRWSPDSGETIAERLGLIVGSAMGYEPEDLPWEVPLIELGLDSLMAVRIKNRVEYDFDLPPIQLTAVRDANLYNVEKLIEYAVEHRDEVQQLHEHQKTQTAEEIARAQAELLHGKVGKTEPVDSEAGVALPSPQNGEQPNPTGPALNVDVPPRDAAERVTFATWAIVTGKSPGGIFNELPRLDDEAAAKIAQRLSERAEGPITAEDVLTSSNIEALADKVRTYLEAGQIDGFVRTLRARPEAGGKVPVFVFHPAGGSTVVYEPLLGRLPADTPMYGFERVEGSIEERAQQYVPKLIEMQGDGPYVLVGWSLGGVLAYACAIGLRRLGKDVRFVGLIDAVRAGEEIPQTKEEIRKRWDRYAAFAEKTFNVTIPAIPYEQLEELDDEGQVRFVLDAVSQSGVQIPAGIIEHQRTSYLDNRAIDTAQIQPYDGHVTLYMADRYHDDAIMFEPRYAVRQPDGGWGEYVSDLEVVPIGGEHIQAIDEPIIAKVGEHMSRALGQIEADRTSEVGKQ
UniProt P9WFT3, whole entry: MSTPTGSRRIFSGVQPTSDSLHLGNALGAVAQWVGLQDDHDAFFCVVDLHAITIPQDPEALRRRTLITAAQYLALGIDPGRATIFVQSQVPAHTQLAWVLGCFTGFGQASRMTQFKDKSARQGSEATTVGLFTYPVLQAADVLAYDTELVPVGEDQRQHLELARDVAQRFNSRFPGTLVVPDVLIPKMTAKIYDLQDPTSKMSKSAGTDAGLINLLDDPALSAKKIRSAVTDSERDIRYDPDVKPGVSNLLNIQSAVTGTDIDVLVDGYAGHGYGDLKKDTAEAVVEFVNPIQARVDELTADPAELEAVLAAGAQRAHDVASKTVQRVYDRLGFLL

The filed quantity is “Percent Effect” (%). How 0% and 100% were set is not recorded. Most values in the screen are low, and negative values occur. Compounds were drawn at random from those tested, without regard to their results.

ClpP1P2: 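ClpP1P2, Mycobacterium tuberculosis (UniProt P9WPC5 and UniProt P9WPC3). Protease assay of ClpP1P2, read by the AMC dye that it sets free. Concentration: 50 µM. Higher reads as stronger inhibition, judged from the few compounds that gave an IC50. Most other retested compounds had strongly negative values. Size under these conditions: about 69,000 compounds, about 10 of them at 50% or above in at least one test.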
Pks13 thioesterase: 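Polyketide synthase Pks13, Mycobacterium tuberculosis (UniProt I6X8D2). Enzyme assay of the thioesterase domain of polyketide synthase 13; the read-out is not stated. Compounds at 30 µM. Higher reads as stronger inhibition (inferred from which compounds were picked for retests). About 67,000 compounds were tested under these conditions; 0.46% (about 300) showed 50% or more at least once.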
MtTrpRS: 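Tryptophan-tRNA ligase, Mycobacterium tuberculosis (UniProt P9WFT3). Enzyme assay of tryptophanyl-tRNA synthetase; the read-out is not stated. Tested at 10 µM. Higher most likely means stronger inhibition; the record gives no direction and few retests gave an IC50. About 65,000 compounds were tested under these conditions; 0.098% (about 64) showed 50% or more at least once.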

Result for c1cnn(CCNCc2nnc(C3CC3)o2)c1 was ClpP1P2: 15.5%; Pks13 thioesterase: -15.54%; MtTrpRS: 1.18%.
Result for CC(C)(C)CC(=O)N1CC[C@H]2NC(=O)N(Cc3ccccc3)C(=O)[C@H]21 was ClpP1P2: -10.88%; Pks13 thioesterase: -27.48%; MtTrpRS: -2.033%.
Result for O=C1NC(c2cccnc2)=NC12CCN(CCCc1ccccc1)CC2 was ClpP1P2: -7.091%; Pks13 thioesterase: -32.18%; MtTrpRS: 1.127%.
Result for Cc1nn(CCCNC(=O)C2CCN(S(C)(=O)=O)CC2)cc1Cl was ClpP1P2: -3.408%; Pks13 thioesterase: -13.61%; MtTrpRS: 0.5663%.
Result for CC(NC(=O)N1CCCN(Cc2cccs2)CC1)c1cccnc1 (stereo unspecified) was ClpP1P2: 0.2378%; Pks13 thioesterase: -6.789%; MtTrpRS: -1.887%.
Result for CCn1ccnc1CN(C)C(C(=O)O)c1ccc(C(C)(C)C#N)cc1 (stereo unspecified) was ClpP1P2: -6.281%; Pks13 thioesterase: -24.88%; MtTrpRS: 7.102%.
Result for CN(Cc1ccncn1)C(=O)C1(Oc2ccc(Cl)cc2)CCNCC1 was ClpP1P2: -11.34%; Pks13 thioesterase: 0.4683%; MtTrpRS: -1.644%.
Result for CCN(CC)CCNC(=O)c1ccn(COc2cc(C)cc(C)c2)n1 was ClpP1P2: 3.287%; Pks13 thioesterase: -18.91%; MtTrpRS: 6.432%.
Result for CNc1ccc(CC2CCCN(C(=O)c3scnc3C)C2)nn1 (stereo unspecified) was ClpP1P2: 3.1%; Pks13 thioesterase: 9.513%.
Result for COCCN1CCCC1c1nccnc1Nc1ncc(C)s1 (stereo unspecified) was ClpP1P2: 0.4115%; Pks13 thioesterase: 13.88%.
Result for Cc1ccc(CN2CCc3[nH]nc(C(=O)N4CCN(C)CC4)c3C2)o1 was ClpP1P2: -12.37%; Pks13 thioesterase: -56.33%; MtTrpRS: 1.374%.
Result for Cc1ncsc1C(=O)N(C)Cc1ccc(Br)o1 was ClpP1P2: -2.847%; Pks13 thioesterase: 0.8011%; MtTrpRS: 10.89%.
Result for CC1CCC(N2CCC(NS(=O)(=O)CCCF)CC2)CC1 (stereo unspecified) was ClpP1P2: -5.004%; Pks13 thioesterase: 7.284%; MtTrpRS: 17.18%.
Result for O=C(CSC1=NS(=O)(=O)c2cc(F)ccc2N1)Nc1ccc(Cl)c(Cl)c1 was ClpP1P2: 21.03%; Pks13 thioesterase: -23.42%; MtTrpRS: 6.446%.
Result for COCC(=O)N1C[C@@H](c2cccc(F)c2)[C@H]2[C@H]1CCCCCN2C(C)=O was ClpP1P2: 24.18%; Pks13 thioesterase: -12.29%; MtTrpRS: 9.952%.
Result for CN(Cc1ccc(C#N)cc1)Cn1nccc1-c1cccnc1 was ClpP1P2: 5.738%; Pks13 thioesterase: -11.05%; MtTrpRS: -4.479%.
Result for Cc1ccc(F)c(C(=O)N2CCC(Nc3ccc(C)nn3)CC2)c1 was ClpP1P2: -11.82%; Pks13 thioesterase: -19.66%; MtTrpRS: -0.8946%.
Result for COc1ccc(C(C)NCc2cnnn2C)cc1F (stereo unspecified) was ClpP1P2: -10.97%; MtTrpRS: -3.922%.
Result for CN(Cc1ccsc1)C(=O)Nc1cccnc1N1CCCC1 was ClpP1P2: 4.498%; Pks13 thioesterase: 10.79%; MtTrpRS: 3.021%.
Result for O=S(=O)(NCC1OCCc2cn(Cc3ccccn3)nc21)C1CC1 (stereo unspecified) was ClpP1P2: -4.952%; Pks13 thioesterase: -1.392%; MtTrpRS: -6.121%.
Result for Cc1cnc(NC(=O)NC(CCO)c2cccs2)s1 (stereo unspecified) was ClpP1P2: 8.755%; MtTrpRS: 0.2154%.
Result for Cc1cc(C(=O)N2CCC3(CCCN(CC4CC4)C3=O)C2)c(C)n1C (stereo unspecified) was ClpP1P2: 0.2384%; Pks13 thioesterase: -3.761%; MtTrpRS: 2.549%.
Result for Cc1cc(CN2C[C@H]3CC[C@@H]2CN(Cc2[nH]cnc2C)C3)on1 was ClpP1P2: -24.96%; Pks13 thioesterase: -24.03%; MtTrpRS: 0.5789%.
Result for Cn1nc2c(cc1=O)CN(CC(=O)NC1CCCCNC1=O)CC2 (stereo unspecified) was ClpP1P2: 5.206%; Pks13 thioesterase: -4.809%; MtTrpRS: 4.369%.
Result for CN1CC(c2ccccc2)CC12CCN(C(=O)c1ccc(F)cc1)CC2 (stereo unspecified) was ClpP1P2: -5.031%; Pks13 thioesterase: -9.262%; MtTrpRS: -1.921%.
Result for CC(CO)NC(=O)c1ccc(NCc2ccccc2)cc1 (stereo unspecified) was ClpP1P2: -12.23%; Pks13 thioesterase: -54.63%; MtTrpRS: 1.493%.
Result for Cc1cc(C)cc(C(=O)N2CCN(C(=O)N(C)C)CC2(C)C)c1 was ClpP1P2: -0.109%; Pks13 thioesterase: -27.82%; MtTrpRS: 2.091%.
Result for Cc1ccc(S(=O)(=O)N2CCN(CCC(N)=O)CC2)s1 was ClpP1P2: 20.19%; Pks13 thioesterase: 7.781%; MtTrpRS: 1.935%.
Result for Cn1ccnc(Nc2ccc3c(c2)CCN3C(=O)c2cccnc2)c1=O was ClpP1P2: 2.57%; Pks13 thioesterase: -16.32%; MtTrpRS: -2.057%.
Result for COc1ncc(C(=O)NCc2ccccc2)cn1 was ClpP1P2: -10.37%; Pks13 thioesterase: 0.7516%; MtTrpRS: -1.972%.
Result for CNc1cccc(C2CCCN(C(=O)c3cncs3)C2)n1 (stereo unspecified) was ClpP1P2: 1.994%; Pks13 thioesterase: 5.545%.
Result for Oc1ccc([C@H]2Oc3cc(O)cc(O)c3C[C@@H]2O)cc1 was ClpP1P2: -12.57%; Pks13 thioesterase: -28.12%; MtTrpRS: 4.292%.
Result for Cn1ccnc1CC1CCCN(C(=O)Cc2ccccc2)C1 (stereo unspecified) was ClpP1P2: -5.919%; Pks13 thioesterase: 12.55%.
Result for OCC1CCCCN1CCn1ccnc1-c1ccc2c(c1)OCCO2 (stereo unspecified) was ClpP1P2: 1.624%; Pks13 thioesterase: -25.21%; MtTrpRS: 3.561%.
Result for CCCC(=O)N1CCC2(CC1)CC(NC(C)=O)c1ccccc1O2 (stereo unspecified) was ClpP1P2: -3.725%; Pks13 thioesterase: -9.307%; MtTrpRS: -3.282%.

Once more, the final 3:

Result for Cn1ccnc1CC1CCCN(C(=O)Cc2ccccc2)C1 (stereo unspecified) was ClpP1P2: -5.919%; Pks13 thioesterase: 12.55%.
Result for OCC1CCCCN1CCn1ccnc1-c1ccc2c(c1)OCCO2 (stereo unspecified) was ClpP1P2: 1.624%; Pks13 thioesterase: -25.21%; MtTrpRS: 3.561%.
Result for CCCC(=O)N1CCC2(CC1)CC(NC(C)=O)c1ccccc1O2 (stereo unspecified) was ClpP1P2: -3.725%; Pks13 thioesterase: -9.307%; MtTrpRS: -3.282%.

Measurements from “University of Dundee, Small-Polar-MMV Screening Library” (2021), ChEMBL document CHEMBL3988442.